Values from PubChem BioAssay AID1259254 (NCATS, 2017)

Test: 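Genome-wide screen for genes that prevent DNA re-replication in cancer cells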 (primary screen)
Cell system: human HCT116 colorectal cancer cells
Knock-down reagent: single siRNA against human genes
Time to read-out: 3 days
Measurement: 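Imaged Hoechst DNA stain sorts each cell into a cycle phase by DNA amount; per plate, G2 fraction set to 0% for non-targeting and 100% for GMNN siRNA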
Direction: G2 robust z-score and G2 cells, % of GMNN control: higher = more G2 cells, more excess DNA replication; raw share of cells in G2: higher = larger share of cells with G2 DNA content
Call rule: 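An siRNA counts as active if its G2 robust z-score lies at least 5 MADs above the screen median; here such calls match roughly 38% of GMNN control or more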
The whole screen tested about 59,000 reagents; this is a random part of them. In the full data, about 1,550 (2.6%) were called active. 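G2 share is only a proxy for re-replication; each gene was hit by three separate siRNAs, and active genes were retested.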 The raw values are shown without normalisation. Entries without a mark were called inactive. Reagents against one gene are numbered here. The record does not give: the amount of reagent.

| gene | siRNA no. | G2 robust z-score | G2 cells, % of GMNN control | raw share of cells in G2 (%) |
| --- | --- | --- | --- | --- |
| FZR1 (fizzy and cell division cycle 20 related 1) | 1 | 0.0239 | 3.14 | 3.9 |
| FZR1 (fizzy and cell division cycle 20 related 1) | 2 | 0.239 | 4.65 | 8.01 |
| FZR1 (fizzy and cell division cycle 20 related 1) | 3 | -0.0896 | 2.34 | 4.37 |
| ASCC2 (activating signal cointegrator 1 complex subunit 2) | 1 | 2.18 | 18.3 | 10.2 |
| ASCC2 (activating signal cointegrator 1 complex subunit 2) | 2 | 0.0257 | 3.15 | 4.39 |
| ASCC2 (activating signal cointegrator 1 complex subunit 2) | 3 | 0.00897 | 3.03 | 3.32 |
| FNDC10 (fibronectin type III domain containing 10) | 1 | -1.06 | -4.49 | 1.84 |
| FNDC10 (fibronectin type III domain containing 10) | 2 | 2.08 | 17.6 | 10.3 |
| FNDC10 (fibronectin type III domain containing 10) | 3 | 6.07 (active) | 45.7 | 19.7 |
| DNAI2 (dynein axonemal intermediate chain 2) | 1 | -0.671 | -1.76 | 3.59 |
| DNAI2 (dynein axonemal intermediate chain 2) | 2 | 0.731 | 8.11 | 9.01 |
| DNAI2 (dynein axonemal intermediate chain 2) | 3 | 0.957 | 9.7 | 7.78 |
| ABI1 (abl interactor 1) | 1 | -0.958 | -3.77 | 3.62 |
| ABI1 (abl interactor 1) | 2 | 0.639 | 7.46 | 7.06 |
| ABI1 (abl interactor 1) | 3 | 0.535 | 6.73 | 5.85 |
| ANKS1B (ankyrin repeat and sterile alpha motif domain containing 1B) | 1 | 0.6 | 7.19 | 7.18 |
| ANKS1B (ankyrin repeat and sterile alpha motif domain containing 1B) | 2 | 1.09 | 10.6 | 9.53 |
| ANKS1B (ankyrin repeat and sterile alpha motif domain containing 1B) | 3 | -0.998 | -4.05 | 1.75 |
| JPH4 (junctophilin 4) | 1 | -1.06 | -4.51 | 2.61 |
| JPH4 (junctophilin 4) | 2 | -0.524 | -0.721 | 3.24 |
| JPH4 (junctophilin 4) | 3 | 1.85 | 16 | 7.26 |
| ARPC3 (actin related protein 2/3 complex subunit 3) | 1 | 0.119 | 3.8 | 6.64 |
| ARPC3 (actin related protein 2/3 complex subunit 3) | 2 | 0.628 | 7.38 | 5.72 |
| ARPC3 (actin related protein 2/3 complex subunit 3) | 3 | 2.46 | 20.3 | 13 |
| PPEF2 (protein phosphatase with EF-hand domain 2) | 1 | 2.78 | 22.5 | 12.1 |
| PPEF2 (protein phosphatase with EF-hand domain 2) | 2 | -1.41 | -6.92 | 2.22 |
| PPEF2 (protein phosphatase with EF-hand domain 2) | 3 | -0.694 | -1.92 | 2.92 |
| MYCT1 (MYC target 1) | 1 | 1.28 | 12 | 9.42 |
| MYCT1 (MYC target 1) | 2 | 0.981 | 9.87 | 8.62 |
| MYCT1 (MYC target 1) | 3 | 2.57 | 21.1 | 8.14 |
| GP1BB (glycoprotein Ib platelet subunit beta) | 1 | -0.358 | 0.45 | 3.25 |
| GP1BB (glycoprotein Ib platelet subunit beta) | 2 | 2.84 | 23 | 11.1 |
| GP1BB (glycoprotein Ib platelet subunit beta) | 3 | -0.877 | -3.2 | 2.4 |
| SHFL (shiftless antiviral inhibitor of ribosomal frameshifting) | 1 | -0.662 | -1.69 | 2.6 |
| SHFL (shiftless antiviral inhibitor of ribosomal frameshifting) | 2 | 1.18 | 11.2 | 8.85 |
| SHFL (shiftless antiviral inhibitor of ribosomal frameshifting) | 3 | 2.53 | 20.8 | 12.7 |
| PSME4 (proteasome activator subunit 4) | 1 | 0.763 | 8.33 | 8.25 |
| PSME4 (proteasome activator subunit 4) | 2 | -0.819 | -2.79 | 2.98 |
| PSME4 (proteasome activator subunit 4) | 3 | 0.405 | 5.82 | 5.35 |
| AQP3 (aquaporin 3 (Gill blood group)) | 1 | 2.65 | 21.6 | 12.1 |
| AQP3 (aquaporin 3 (Gill blood group)) | 2 | -1.31 | -6.28 | 2.84 |
| AQP3 (aquaporin 3 (Gill blood group)) | 3 | -0.7 | -1.96 | 3.26 |
| PLK4 (polo like kinase 4) | 1 | 3.09 | 24.7 | 13.3 |
| PLK4 (polo like kinase 4) | 2 | 3.08 | 24.6 | 14.1 |
| PLK4 (polo like kinase 4) | 3 | 3.4 | 26.9 | 12.3 |
| THTPA (thiamine triphosphatase) | 1 | -0.568 | -1.03 | 4.13 |
| THTPA (thiamine triphosphatase) | 2 | 0.151 | 4.03 | 6.41 |
| THTPA (thiamine triphosphatase) | 3 | 0.167 | 4.14 | 3.79 |
| MYO3A (myosin IIIA) | 1 | -0.355 | 0.472 | 3.98 |
| MYO3A (myosin IIIA) | 2 | 7.24 (active) | 53.9 | 30.4 |
| MYO3A (myosin IIIA) | 3 | 0.739 | 8.16 | 7.26 |
| MLN (motilin) | 1 | -1.05 | -4.4 | 3.66 |
| MLN (motilin) | 2 | 2.06 | 17.5 | 12.4 |
| MLN (motilin) | 3 | 0.16 | 4.09 | 4.55 |
| LZTS2 (leucine zipper tumor suppressor 2) | 1 | -0.307 | 0.804 | 4.38 |
| LZTS2 (leucine zipper tumor suppressor 2) | 2 | 1.01 | 10.1 | 6.44 |
| LZTS2 (leucine zipper tumor suppressor 2) | 3 | 0.713 | 7.98 | 4.83 |
| MARCHF8 (membrane associated ring-CH-type finger 8) | 1 | -0.878 | -3.21 | 4.43 |
| MARCHF8 (membrane associated ring-CH-type finger 8) | 2 | 2.59 | 21.2 | 12.5 |
| MARCHF8 (membrane associated ring-CH-type finger 8) | 3 | 0.846 | 8.92 | 8.45 |
| JTB (jumping translocation breakpoint) | 1 | -1.39 | -6.81 | 2.32 |
| JTB (jumping translocation breakpoint) | 2 | -0.197 | 1.58 | 4.79 |
| JTB (jumping translocation breakpoint) | 3 | 0.0259 | 3.15 | 4.35 |
| ORC5 (origin recognition complex subunit 5) | 1 | -0.359 | 0.441 | 5.37 |
| ORC5 (origin recognition complex subunit 5) | 2 | 0.0416 | 3.26 | 6.07 |
| ORC5 (origin recognition complex subunit 5) | 3 | -0.136 | 2.01 | 3.89 |
| UCP2 (uncoupling protein 2) | 1 | 0.372 | 5.58 | 6.34 |
| UCP2 (uncoupling protein 2) | 2 | -1.67 | -8.78 | 1.58 |
| UCP2 (uncoupling protein 2) | 3 | -0.43 | -0.0578 | 5.57 |
| ST6GALNAC2 (ST6 N-acetylgalactosaminide alpha-2,6-sialyltransferase 2) | 1 | 3.4 | 26.9 | 12.5 |
| ST6GALNAC2 (ST6 N-acetylgalactosaminide alpha-2,6-sialyltransferase 2) | 2 | -0.417 | 0.0346 | 5.71 |
| ST6GALNAC2 (ST6 N-acetylgalactosaminide alpha-2,6-sialyltransferase 2) | 3 | -0.03 | 2.76 | 7.56 |
| HMGN5 (high mobility group nucleosome binding domain 5) | 1 | 0.706 | 7.93 | 8.03 |
| HMGN5 (high mobility group nucleosome binding domain 5) | 2 | -0.671 | -1.75 | 3.82 |
| HMGN5 (high mobility group nucleosome binding domain 5) | 3 | 0.587 | 7.1 | 4.57 |
| MFSD2A (MFSD2 lysolipid transporter A, lysophospholipid) | 1 | 1.37 | 12.6 | 9.25 |
| MFSD2A (MFSD2 lysolipid transporter A, lysophospholipid) | 2 | 0.176 | 4.2 | 6.77 |
| MFSD2A (MFSD2 lysolipid transporter A, lysophospholipid) | 3 | 1.91 | 16.4 | 13.3 |
| KRABD1 (KRAB domain containing 1) | 1 | 1.71 | 15 | 10.1 |
| KRABD1 (KRAB domain containing 1) | 2 | 0.458 | 6.19 | 6.62 |
| KRABD1 (KRAB domain containing 1) | 3 | -0.446 | -0.168 | 3.24 |
| TBC1D2B (TBC1 domain family member 2B) | 1 | -1.08 | -4.6 | 3.18 |
| TBC1D2B (TBC1 domain family member 2B) | 2 | -0.415 | 0.0447 | 4.15 |
| TBC1D2B (TBC1 domain family member 2B) | 3 | -0.0823 | 2.39 | 4.07 |
| FAAP24 (FA core complex associated protein 24) | 1 | -0.107 | 2.22 | 5.02 |
| FAAP24 (FA core complex associated protein 24) | 2 | 0.362 | 5.52 | 4.73 |
| FAAP24 (FA core complex associated protein 24) | 3 | 0.381 | 5.65 | 4.72 |

Called active, among the entries above:
| gene | siRNA no. | G2 robust z-score | G2 cells, % of GMNN control | raw share of cells in G2 (%) |
| --- | --- | --- | --- | --- |
| FNDC10 (fibronectin type III domain containing 10) | 3 | 6.07 (active) | 45.7 | 19.7 |
| MYO3A (myosin IIIA) | 2 | 7.24 (active) | 53.9 | 30.4 |
